Results as given in paper PMC7817834.
No constants are given. Whether binding was seen depends on the method and setting. Binding seen in cells or lysates may run through a third protein. Binding can be weak; no strength is given.

Target: T1, ANXA1 (stably expressed in ANXA1/293T cells) (human) (UniProt P04083)
T1 sequence: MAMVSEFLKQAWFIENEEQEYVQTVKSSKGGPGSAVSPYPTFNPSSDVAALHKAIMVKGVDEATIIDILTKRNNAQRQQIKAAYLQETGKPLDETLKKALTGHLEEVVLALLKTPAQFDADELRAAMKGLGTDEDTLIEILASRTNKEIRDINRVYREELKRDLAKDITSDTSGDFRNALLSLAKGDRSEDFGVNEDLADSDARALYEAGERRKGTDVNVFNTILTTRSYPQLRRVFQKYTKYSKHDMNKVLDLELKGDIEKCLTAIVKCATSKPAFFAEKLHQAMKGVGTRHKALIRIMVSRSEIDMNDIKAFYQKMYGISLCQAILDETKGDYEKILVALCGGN
Experiment: co-IP; lysates of ANXA1/293T cells transfected with full-length or domain-deleted KIAA1199-FLAG, incubated with anti-FLAG and anti-ANXA1 antibody, respectively; Protein A/G agarose beads; western blotting

| Substance | binding |
| --- | --- |
| ΔC3-KIAA1199 (human) (domain or fragment) | binds |
| ΔN3-KIAA1199 (human) (domain or fragment) | no binding |
| ΔC1-KIAA1199 (human) (domain or fragment) | binds |
| ΔN2-KIAA1199 (human) (domain or fragment) | no binding |
| ΔC2-KIAA1199 (human) (domain or fragment) | binds |
